Laboratory results from the M2OR odorant receptor database.
The entries are a selection whose mix differs from that of the whole data set. Calls are pooled over several reports, among them a noisy single-well screen. Some of the results follow.

Amino acid sequences for entries named in this document (tags omitted). A change or cut given only in a name is not applied to a line headed by its entry.
UniProt Q96RD3: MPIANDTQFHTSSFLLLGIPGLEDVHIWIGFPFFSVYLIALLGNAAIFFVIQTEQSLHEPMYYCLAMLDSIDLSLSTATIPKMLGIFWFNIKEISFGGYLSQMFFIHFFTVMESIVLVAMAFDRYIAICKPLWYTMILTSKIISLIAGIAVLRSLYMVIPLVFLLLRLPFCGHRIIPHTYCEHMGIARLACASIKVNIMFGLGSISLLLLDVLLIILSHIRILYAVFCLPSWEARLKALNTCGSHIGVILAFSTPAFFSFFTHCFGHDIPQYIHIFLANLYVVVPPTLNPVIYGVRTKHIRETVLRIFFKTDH
UniProt Q8NGK6: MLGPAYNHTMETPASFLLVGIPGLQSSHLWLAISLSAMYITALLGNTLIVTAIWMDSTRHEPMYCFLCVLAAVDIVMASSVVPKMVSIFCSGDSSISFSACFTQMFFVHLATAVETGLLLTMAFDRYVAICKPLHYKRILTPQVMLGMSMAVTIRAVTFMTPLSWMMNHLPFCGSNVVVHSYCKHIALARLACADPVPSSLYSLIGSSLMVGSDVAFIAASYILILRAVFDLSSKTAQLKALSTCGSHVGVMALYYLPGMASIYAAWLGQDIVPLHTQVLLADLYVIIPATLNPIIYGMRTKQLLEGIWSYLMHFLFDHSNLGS
UniProt Q8NH60: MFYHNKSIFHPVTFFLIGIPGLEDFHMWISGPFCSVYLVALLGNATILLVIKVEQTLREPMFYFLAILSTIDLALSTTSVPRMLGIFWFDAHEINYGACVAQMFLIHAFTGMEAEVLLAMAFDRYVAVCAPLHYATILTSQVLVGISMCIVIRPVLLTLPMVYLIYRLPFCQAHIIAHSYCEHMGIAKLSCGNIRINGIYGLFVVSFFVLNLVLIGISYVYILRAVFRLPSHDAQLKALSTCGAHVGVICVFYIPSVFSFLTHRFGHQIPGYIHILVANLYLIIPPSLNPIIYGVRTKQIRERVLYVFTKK
UniProt Q8NGI0: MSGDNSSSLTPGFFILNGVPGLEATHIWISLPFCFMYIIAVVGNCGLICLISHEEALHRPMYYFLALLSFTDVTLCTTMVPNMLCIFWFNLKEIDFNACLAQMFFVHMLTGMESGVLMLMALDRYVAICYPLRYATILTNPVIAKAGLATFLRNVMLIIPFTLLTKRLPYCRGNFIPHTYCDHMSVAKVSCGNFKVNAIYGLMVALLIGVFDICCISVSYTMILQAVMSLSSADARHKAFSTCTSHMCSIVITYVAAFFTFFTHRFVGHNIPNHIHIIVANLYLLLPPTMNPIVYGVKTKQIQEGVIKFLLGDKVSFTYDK
UniProt Q8NGF1: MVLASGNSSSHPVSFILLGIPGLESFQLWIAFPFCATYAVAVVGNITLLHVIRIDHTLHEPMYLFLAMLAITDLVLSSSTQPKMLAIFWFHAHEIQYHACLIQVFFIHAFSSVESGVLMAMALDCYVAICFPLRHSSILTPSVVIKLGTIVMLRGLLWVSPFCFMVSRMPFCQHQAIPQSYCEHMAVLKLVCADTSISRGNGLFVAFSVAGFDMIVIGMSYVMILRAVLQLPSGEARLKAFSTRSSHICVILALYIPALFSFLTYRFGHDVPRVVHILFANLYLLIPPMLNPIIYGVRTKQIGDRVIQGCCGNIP

Columns and labels:
Conditions in all cases: stereoisomer not certain
OR52E6 (Homo sapiens) = OR52E6 (Homo sapiens) (UniProt Q96RD3)
Summary of the method: (§1)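 Each entry records the cell line, G-protein, co-transfected protein and tags used. Methods varied with the source, often transient luciferase assays in mammalian cell lines. A receptor–molecule pair is called responsive (active) if the original authors judged its signal statistically different from baseline and non-responsive (inactive) otherwise.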

OR52H1 (Homo sapiens) = biological target: T1, OR52H1 (Homo sapiens) (UniProt Q8NGJ2)
T1 sequence (whole entry): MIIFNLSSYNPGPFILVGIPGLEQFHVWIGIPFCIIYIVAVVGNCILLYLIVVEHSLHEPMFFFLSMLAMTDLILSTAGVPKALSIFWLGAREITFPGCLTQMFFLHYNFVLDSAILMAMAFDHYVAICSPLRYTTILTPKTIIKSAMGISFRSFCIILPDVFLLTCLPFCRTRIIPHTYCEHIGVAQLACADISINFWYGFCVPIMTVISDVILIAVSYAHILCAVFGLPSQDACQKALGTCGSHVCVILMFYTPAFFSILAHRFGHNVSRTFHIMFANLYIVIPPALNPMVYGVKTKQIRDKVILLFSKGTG
Summary of the method: as §1

OR52K1 (Homo sapiens) = biological target: T2, OR52K1 (Homo sapiens) (UniProt Q8NGK4)
T2 sequence (whole entry): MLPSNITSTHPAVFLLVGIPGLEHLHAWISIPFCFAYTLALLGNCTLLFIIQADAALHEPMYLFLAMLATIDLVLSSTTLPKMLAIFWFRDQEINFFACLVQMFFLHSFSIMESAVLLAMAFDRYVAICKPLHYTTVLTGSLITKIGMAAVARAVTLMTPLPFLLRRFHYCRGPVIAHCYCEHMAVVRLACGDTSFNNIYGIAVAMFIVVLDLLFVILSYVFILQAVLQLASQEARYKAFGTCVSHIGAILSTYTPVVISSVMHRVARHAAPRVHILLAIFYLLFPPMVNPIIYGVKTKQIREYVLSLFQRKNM
Summary of the method: as §1

OR52K2 (Homo sapiens) = biological target: T3, OR52K2 (Homo sapiens) (UniProt Q8NGK3)
T3 sequence (whole entry): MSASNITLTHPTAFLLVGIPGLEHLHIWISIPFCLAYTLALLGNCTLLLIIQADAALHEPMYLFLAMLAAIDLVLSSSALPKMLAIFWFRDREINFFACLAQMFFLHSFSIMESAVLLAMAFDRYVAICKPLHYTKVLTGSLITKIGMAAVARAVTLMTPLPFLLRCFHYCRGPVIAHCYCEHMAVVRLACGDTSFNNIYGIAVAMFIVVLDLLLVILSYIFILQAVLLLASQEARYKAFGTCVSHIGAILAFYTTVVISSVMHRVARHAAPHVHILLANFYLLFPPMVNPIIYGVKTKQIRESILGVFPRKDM
Summary of the method: as §1

OR52N5 (Homo sapiens) = biological target: T4, OR52N5 (Homo sapiens) (UniProt Q8NH56)
T4 sequence (whole entry): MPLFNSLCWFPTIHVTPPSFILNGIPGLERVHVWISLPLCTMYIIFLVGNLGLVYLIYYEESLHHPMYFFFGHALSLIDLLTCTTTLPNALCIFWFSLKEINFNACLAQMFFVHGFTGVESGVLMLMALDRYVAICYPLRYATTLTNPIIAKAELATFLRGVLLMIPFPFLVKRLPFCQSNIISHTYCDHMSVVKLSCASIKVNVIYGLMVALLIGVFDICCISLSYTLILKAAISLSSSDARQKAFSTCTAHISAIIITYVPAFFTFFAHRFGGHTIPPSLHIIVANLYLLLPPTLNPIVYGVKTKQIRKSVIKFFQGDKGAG
Summary of the method: as §1

OR56A1 (Homo sapiens) = biological target: T5, OR56A1 (Homo sapiens) (UniProt Q8NGH5)
T5 sequence (whole entry): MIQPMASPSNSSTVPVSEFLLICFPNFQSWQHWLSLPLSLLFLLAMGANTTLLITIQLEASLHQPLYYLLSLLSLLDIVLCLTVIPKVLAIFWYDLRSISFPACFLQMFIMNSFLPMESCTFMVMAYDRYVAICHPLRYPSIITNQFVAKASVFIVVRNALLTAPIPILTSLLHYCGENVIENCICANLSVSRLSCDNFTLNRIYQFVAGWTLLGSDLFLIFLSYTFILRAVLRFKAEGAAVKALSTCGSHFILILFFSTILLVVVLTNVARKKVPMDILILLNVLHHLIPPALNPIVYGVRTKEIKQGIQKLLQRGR
Summary of the method: as §1

OR56A4 (Homo sapiens) = biological target: T6, OR56A4 (Homo sapiens) (UniProt Q8NGH8)
T6 sequence (whole entry): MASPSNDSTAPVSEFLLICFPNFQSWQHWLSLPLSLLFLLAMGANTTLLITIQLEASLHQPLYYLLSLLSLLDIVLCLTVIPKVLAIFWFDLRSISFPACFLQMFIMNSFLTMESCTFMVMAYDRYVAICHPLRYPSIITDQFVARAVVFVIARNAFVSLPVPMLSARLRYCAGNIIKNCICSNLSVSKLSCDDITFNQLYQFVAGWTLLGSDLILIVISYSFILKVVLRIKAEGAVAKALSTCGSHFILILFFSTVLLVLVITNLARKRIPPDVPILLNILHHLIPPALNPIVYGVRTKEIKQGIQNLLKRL
Summary of the method: as §1

OR52I1 (Homo sapiens) = OR52I1 (Homo sapiens) (UniProt Q8NGK6)
Summary of the method: as §1

OR52I2 (Homo sapiens) = biological target: T7, OR52I2 (Homo sapiens) (UniProt Q8NH67)
T7 sequence (whole entry): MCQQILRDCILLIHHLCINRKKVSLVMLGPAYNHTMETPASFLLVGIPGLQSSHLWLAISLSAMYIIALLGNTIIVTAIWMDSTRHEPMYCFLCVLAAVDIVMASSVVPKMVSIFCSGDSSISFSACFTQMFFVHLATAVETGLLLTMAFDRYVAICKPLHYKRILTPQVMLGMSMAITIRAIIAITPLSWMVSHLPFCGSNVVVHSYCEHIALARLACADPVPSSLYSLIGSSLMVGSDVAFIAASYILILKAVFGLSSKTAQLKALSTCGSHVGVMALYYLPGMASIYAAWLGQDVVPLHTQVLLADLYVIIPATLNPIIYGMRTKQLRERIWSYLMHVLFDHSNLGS
Summary of the method: as §1

OR52J3 (Homo sapiens) = OR52J3 (Homo sapiens) (UniProt Q8NH60)
Summary of the method: as §1

OR52L1 (Homo sapiens) = biological target: T8, OR52L1 (Homo sapiens) (UniProt Q8NGH7)
T8 sequence (whole entry): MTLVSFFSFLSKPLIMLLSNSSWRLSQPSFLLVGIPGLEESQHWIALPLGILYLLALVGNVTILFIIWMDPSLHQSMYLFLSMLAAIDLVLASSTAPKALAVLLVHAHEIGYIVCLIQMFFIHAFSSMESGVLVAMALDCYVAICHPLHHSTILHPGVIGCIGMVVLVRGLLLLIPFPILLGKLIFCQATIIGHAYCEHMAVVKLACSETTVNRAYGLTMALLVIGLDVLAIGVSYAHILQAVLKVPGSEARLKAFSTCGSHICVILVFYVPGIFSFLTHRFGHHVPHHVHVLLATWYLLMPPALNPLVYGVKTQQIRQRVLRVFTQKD
Summary of the method: as §1

OR52M1 (Homo sapiens) = biological target: T9, OR52M1 (Homo sapiens) (UniProt Q8NGK5)
T9 sequence (whole entry): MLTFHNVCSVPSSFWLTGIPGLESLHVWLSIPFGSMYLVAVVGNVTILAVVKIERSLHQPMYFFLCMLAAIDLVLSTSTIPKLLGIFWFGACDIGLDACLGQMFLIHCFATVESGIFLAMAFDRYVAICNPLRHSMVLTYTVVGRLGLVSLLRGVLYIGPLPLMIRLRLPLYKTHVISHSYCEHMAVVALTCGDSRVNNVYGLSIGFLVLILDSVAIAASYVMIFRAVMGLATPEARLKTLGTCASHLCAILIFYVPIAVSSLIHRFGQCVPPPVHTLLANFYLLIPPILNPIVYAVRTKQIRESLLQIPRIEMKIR
Summary of the method: as §1

OR52N1 (Homo sapiens) = biological target: T10, OR52N1 (Homo sapiens) (UniProt Q8NH53)
T10 sequence (whole entry): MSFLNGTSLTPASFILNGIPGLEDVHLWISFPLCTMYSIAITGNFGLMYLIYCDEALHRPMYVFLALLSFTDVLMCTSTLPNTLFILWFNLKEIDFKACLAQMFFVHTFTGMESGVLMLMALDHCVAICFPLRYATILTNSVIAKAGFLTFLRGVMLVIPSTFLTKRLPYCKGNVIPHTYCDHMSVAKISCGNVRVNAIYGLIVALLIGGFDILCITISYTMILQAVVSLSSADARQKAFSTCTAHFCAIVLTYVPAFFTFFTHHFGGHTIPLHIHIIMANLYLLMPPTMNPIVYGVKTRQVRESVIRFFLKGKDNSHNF
Summary of the method: as §1

OR52N2 (Homo sapiens) = OR52N2 (Homo sapiens) (UniProt Q8NGI0)
Summary of the method: as §1

OR52N4 (Homo sapiens) = biological target: T11, OR52N4 (Homo sapiens) (UniProt Q8NGI2)
T11 sequence (whole entry): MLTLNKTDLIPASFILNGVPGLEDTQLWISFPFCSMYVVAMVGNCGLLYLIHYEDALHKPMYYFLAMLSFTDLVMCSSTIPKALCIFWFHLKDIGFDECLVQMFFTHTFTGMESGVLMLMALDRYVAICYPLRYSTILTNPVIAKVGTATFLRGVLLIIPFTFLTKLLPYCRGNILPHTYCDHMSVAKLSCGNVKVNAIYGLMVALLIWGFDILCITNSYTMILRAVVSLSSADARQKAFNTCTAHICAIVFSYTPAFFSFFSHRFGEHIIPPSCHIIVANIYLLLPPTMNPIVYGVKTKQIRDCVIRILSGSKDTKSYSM
Summary of the method: as §1

OR52R1 (Homo sapiens) = OR52R1 (Homo sapiens) (UniProt Q8NGF1)
Summary of the method: as §1

OR52W1 (Homo sapiens) = biological target: T12, OR52W1 (Homo sapiens) (UniProt Q6IF63)
T12 sequence (whole entry): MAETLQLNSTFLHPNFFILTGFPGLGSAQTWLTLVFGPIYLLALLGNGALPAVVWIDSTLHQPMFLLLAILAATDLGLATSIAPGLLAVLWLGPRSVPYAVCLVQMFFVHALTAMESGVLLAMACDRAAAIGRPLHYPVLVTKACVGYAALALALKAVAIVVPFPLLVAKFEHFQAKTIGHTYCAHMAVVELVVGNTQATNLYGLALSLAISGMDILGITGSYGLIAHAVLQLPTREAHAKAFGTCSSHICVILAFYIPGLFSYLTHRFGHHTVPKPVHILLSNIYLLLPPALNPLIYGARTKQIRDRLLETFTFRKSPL
Summary of the method: as §1

OR56A3 (Homo sapiens) = biological target: T13, OR56A3 (Homo sapiens) (UniProt Q8NH54)
T13 sequence (whole entry): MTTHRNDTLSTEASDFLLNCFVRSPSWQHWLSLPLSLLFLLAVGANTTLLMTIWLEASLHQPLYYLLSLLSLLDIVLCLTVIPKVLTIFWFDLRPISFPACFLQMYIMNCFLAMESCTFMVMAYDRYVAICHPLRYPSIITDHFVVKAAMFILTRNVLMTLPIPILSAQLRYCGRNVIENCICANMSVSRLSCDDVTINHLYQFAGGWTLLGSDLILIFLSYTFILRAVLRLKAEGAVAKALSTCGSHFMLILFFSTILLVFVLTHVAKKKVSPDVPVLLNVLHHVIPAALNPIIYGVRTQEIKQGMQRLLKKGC
Summary of the method: as §1

Measured: odorant receptor agonist call

O=CCc1ccccc1
inactive: OR52E6 (Homo sapiens) | OR52H1 (Homo sapiens) | OR52K1 (Homo sapiens) | OR52K2 (Homo sapiens) | OR56A1 (Homo sapiens) | OR56A4 (Homo sapiens)
active: OR52N5 (Homo sapiens)

CC(C)=CCCC(C)=CC=O
inactive: OR52E6 (Homo sapiens) | OR52K1 (Homo sapiens) | OR52K2 (Homo sapiens) | OR56A1 (Homo sapiens) | OR56A4 (Homo sapiens)
active: OR52H1 (Homo sapiens) | OR52N5 (Homo sapiens)

COC(=O)c1ccccc1O
inactive: OR52E6 (Homo sapiens) | OR52H1 (Homo sapiens) | OR52K1 (Homo sapiens) | OR52K2 (Homo sapiens) | OR52N5 (Homo sapiens) | OR56A1 (Homo sapiens) | OR56A4 (Homo sapiens)

COc1cc(C=O)ccc1O
inactive: OR52E6 (Homo sapiens) | OR52H1 (Homo sapiens) | OR52K1 (Homo sapiens) | OR52K2 (Homo sapiens) | OR52N5 (Homo sapiens) | OR56A1 (Homo sapiens) | OR56A4 (Homo sapiens)

C=CCc1ccc(OC(C)=O)c(OC)c1
inactive: OR52E6 (Homo sapiens) | OR52K1 (Homo sapiens) | OR52K2 (Homo sapiens) | OR56A1 (Homo sapiens)
active: OR52H1 (Homo sapiens) | OR52N5 (Homo sapiens) | OR56A4 (Homo sapiens)

CCCCCCOC(=O)CCC
inactive: OR52E6 (Homo sapiens) | OR52H1 (Homo sapiens) | OR52K1 (Homo sapiens) | OR52K2 (Homo sapiens) | OR52N5 (Homo sapiens) | OR56A1 (Homo sapiens) | OR56A4 (Homo sapiens)

CC(=O)OC1CC2CCC1(C)C2(C)C (stereo not drawn)
inactive: OR52E6 (Homo sapiens) | OR52H1 (Homo sapiens) | OR52K1 (Homo sapiens) | OR52K2 (Homo sapiens) | OR52N5 (Homo sapiens) | OR56A1 (Homo sapiens) | OR56A4 (Homo sapiens)

C=CC(C)(O)CCC=C(C)C (stereo not drawn)
inactive: OR52E6 (Homo sapiens) | OR52K1 (Homo sapiens) | OR52K2 (Homo sapiens) | OR52N5 (Homo sapiens) | OR56A1 (Homo sapiens) | OR56A4 (Homo sapiens)
active: OR52H1 (Homo sapiens)

CCCC(=O)O
active: OR52H1 (Homo sapiens) | OR52I1 (Homo sapiens)
inactive: all other assays above

O=C1CCCCCCCCCCCCCCO1
inactive: OR52E6 (Homo sapiens) | OR52H1 (Homo sapiens) | OR52K1 (Homo sapiens) | OR52K2 (Homo sapiens) | OR52N5 (Homo sapiens) | OR56A1 (Homo sapiens) | OR56A4 (Homo sapiens)

CC=Cc1ccc(O)c(OC)c1
inactive: OR52E6 (Homo sapiens) | OR52K1 (Homo sapiens) | OR52K2 (Homo sapiens) | OR56A1 (Homo sapiens)
active: OR52H1 (Homo sapiens) | OR52N5 (Homo sapiens) | OR56A4 (Homo sapiens)
